According to the supplement of paper PMC6411743:
± gives the standard deviation of the averaged measurements. The entries are a selection whose mix differs from that of the whole data set.

By UniProt entry, the sequences of proteins in these tests, tags left out. Where a name states a change or a piece, a line headed by the entry shows the natural chain unless it says otherwise.
UniProt P0DMN0: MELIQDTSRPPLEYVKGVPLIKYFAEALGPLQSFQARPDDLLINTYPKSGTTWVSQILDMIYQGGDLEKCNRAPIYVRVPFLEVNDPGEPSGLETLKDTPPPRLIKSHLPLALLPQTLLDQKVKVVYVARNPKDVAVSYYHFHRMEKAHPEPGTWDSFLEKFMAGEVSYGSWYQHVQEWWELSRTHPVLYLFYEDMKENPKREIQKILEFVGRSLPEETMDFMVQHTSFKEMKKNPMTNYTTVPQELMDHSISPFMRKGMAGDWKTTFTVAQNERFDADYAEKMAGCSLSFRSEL
UniProt P61077: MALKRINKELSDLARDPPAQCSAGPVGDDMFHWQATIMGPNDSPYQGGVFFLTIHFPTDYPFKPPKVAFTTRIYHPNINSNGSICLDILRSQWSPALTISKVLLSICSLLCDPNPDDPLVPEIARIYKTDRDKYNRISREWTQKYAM
UniProt Q5QP82: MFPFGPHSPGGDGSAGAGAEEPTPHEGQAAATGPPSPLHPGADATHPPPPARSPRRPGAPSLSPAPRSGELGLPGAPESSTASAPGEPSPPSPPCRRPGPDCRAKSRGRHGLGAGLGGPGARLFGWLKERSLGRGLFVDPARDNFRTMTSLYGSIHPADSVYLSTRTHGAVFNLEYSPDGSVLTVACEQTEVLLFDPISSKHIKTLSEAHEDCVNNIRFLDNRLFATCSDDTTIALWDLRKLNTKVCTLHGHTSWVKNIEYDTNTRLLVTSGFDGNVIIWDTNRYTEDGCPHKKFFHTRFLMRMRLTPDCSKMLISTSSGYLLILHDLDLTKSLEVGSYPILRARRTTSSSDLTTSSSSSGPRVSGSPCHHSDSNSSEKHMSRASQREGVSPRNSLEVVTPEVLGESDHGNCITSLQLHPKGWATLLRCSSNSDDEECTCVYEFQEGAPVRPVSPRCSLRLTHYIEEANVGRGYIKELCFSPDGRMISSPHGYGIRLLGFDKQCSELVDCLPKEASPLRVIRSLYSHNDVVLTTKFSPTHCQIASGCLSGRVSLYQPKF
UniProt Q8IXQ4: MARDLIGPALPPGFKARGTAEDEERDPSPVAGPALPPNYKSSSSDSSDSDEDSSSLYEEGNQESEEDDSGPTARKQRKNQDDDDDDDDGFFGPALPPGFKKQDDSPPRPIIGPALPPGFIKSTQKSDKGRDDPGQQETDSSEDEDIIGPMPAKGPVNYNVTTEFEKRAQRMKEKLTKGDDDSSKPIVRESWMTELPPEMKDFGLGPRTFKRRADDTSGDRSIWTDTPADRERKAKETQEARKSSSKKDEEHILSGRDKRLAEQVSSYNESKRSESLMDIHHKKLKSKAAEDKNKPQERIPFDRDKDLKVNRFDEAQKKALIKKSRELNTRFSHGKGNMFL
UniProt Q5RL73: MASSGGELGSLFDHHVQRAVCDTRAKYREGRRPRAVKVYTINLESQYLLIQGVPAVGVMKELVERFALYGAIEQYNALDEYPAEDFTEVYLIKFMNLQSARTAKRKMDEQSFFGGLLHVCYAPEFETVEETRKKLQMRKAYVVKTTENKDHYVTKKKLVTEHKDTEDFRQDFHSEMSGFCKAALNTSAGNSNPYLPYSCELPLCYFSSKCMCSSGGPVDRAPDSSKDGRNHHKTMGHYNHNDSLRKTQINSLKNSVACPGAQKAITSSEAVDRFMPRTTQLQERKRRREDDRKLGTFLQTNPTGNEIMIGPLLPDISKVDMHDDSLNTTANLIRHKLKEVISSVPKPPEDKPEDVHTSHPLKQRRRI
UniProt Q6UXD5: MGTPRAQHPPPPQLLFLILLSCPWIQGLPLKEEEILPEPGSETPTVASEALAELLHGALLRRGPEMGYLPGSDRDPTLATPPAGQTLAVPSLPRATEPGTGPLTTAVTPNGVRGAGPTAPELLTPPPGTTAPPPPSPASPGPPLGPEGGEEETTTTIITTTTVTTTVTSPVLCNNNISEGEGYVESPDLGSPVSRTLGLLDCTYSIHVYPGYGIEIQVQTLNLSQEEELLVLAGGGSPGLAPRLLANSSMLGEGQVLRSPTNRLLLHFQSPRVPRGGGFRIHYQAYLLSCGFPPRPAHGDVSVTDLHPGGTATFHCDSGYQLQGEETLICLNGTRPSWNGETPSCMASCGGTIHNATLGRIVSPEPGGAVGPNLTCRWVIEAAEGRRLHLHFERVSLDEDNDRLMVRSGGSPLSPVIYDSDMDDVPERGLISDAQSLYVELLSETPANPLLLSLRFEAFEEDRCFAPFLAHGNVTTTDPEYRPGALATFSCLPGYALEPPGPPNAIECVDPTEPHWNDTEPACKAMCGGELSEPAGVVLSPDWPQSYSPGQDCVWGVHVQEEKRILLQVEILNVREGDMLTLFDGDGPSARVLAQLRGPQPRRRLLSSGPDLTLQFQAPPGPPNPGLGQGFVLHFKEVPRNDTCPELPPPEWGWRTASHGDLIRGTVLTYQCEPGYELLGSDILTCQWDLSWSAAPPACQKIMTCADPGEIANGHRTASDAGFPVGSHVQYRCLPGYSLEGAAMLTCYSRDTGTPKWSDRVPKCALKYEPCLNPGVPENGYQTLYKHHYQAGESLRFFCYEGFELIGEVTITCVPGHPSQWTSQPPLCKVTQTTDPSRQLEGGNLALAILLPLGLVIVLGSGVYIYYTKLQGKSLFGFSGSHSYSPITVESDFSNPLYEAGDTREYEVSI
UniProt Q9H3P2, whole entry: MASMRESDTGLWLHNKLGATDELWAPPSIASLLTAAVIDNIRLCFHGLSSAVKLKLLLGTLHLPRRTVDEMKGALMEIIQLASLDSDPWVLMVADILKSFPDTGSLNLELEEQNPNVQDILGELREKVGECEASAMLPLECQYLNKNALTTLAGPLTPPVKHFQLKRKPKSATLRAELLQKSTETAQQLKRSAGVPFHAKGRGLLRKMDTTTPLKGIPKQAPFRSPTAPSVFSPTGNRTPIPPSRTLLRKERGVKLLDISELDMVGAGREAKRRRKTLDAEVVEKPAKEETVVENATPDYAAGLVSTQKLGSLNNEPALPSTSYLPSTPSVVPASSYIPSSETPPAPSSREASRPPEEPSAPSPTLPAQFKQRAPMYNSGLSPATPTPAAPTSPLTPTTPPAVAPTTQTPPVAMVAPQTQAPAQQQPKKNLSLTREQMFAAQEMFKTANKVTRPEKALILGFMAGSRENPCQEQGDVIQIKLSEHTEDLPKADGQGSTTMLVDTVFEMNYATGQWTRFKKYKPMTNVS
UniProt P22570: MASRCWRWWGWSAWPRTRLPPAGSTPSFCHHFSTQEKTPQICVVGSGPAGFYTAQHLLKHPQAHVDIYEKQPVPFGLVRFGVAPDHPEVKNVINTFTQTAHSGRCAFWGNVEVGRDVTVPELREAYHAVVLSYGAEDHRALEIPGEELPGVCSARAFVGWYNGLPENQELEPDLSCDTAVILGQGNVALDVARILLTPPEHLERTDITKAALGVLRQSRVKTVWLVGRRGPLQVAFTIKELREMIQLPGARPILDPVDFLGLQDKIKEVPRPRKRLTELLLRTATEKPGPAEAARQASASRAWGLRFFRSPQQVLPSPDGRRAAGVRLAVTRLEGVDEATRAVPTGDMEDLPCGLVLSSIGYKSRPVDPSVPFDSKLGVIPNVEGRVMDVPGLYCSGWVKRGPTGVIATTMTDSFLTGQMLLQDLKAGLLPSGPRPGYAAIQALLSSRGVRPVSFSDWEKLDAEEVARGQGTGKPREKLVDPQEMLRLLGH
UniProt P22061: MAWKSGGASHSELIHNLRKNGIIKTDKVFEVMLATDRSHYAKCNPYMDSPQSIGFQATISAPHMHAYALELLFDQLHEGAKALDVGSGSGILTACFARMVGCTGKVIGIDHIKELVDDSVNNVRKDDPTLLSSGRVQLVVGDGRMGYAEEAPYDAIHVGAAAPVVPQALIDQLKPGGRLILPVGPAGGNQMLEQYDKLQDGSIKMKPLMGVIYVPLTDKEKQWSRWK
UniProt O43837: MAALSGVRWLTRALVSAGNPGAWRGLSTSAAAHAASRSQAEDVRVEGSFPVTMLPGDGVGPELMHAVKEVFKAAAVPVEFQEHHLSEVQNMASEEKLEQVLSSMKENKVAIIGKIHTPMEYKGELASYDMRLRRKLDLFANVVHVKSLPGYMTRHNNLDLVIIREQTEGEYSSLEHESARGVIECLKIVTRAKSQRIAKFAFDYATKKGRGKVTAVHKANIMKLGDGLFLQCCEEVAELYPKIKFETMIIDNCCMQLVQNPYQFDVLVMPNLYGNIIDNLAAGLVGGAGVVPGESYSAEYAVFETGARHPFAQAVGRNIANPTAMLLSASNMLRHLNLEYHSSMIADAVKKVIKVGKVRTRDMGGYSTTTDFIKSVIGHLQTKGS
UniProt Q9Y314: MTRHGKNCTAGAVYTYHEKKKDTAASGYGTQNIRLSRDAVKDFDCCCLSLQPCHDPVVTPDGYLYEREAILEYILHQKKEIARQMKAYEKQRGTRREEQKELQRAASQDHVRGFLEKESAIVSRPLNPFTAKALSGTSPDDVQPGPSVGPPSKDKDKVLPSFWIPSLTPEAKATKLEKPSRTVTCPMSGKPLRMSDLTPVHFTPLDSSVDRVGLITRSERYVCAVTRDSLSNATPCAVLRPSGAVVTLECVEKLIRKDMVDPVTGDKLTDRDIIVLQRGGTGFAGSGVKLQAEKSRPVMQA
UniProt Q5ST30: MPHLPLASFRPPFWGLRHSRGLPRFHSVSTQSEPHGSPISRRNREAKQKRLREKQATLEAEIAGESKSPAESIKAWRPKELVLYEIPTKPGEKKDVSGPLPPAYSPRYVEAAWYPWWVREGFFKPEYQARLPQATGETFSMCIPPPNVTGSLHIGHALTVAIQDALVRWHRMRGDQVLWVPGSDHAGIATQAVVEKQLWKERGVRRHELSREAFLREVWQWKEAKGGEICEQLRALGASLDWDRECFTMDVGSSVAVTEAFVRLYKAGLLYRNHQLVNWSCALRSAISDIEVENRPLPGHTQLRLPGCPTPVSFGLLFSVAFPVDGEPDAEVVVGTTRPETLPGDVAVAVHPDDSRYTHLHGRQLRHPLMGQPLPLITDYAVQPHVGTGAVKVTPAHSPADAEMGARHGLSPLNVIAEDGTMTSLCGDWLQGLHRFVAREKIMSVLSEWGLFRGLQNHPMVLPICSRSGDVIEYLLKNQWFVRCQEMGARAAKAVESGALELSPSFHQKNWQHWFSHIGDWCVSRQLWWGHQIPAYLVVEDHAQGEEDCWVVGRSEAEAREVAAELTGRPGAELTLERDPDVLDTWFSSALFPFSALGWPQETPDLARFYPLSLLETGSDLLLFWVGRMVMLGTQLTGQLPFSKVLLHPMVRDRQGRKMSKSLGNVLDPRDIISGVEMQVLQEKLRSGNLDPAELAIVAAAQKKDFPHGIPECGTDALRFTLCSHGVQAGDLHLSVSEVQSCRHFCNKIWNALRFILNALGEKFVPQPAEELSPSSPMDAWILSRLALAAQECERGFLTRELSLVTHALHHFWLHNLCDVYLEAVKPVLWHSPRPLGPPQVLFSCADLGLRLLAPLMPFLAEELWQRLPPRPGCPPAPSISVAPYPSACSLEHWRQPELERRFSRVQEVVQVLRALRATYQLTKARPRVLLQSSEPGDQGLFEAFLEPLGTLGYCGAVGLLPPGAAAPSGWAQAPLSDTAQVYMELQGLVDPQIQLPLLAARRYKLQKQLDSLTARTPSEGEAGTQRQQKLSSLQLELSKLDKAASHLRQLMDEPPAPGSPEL
UniProt Q2M2I8: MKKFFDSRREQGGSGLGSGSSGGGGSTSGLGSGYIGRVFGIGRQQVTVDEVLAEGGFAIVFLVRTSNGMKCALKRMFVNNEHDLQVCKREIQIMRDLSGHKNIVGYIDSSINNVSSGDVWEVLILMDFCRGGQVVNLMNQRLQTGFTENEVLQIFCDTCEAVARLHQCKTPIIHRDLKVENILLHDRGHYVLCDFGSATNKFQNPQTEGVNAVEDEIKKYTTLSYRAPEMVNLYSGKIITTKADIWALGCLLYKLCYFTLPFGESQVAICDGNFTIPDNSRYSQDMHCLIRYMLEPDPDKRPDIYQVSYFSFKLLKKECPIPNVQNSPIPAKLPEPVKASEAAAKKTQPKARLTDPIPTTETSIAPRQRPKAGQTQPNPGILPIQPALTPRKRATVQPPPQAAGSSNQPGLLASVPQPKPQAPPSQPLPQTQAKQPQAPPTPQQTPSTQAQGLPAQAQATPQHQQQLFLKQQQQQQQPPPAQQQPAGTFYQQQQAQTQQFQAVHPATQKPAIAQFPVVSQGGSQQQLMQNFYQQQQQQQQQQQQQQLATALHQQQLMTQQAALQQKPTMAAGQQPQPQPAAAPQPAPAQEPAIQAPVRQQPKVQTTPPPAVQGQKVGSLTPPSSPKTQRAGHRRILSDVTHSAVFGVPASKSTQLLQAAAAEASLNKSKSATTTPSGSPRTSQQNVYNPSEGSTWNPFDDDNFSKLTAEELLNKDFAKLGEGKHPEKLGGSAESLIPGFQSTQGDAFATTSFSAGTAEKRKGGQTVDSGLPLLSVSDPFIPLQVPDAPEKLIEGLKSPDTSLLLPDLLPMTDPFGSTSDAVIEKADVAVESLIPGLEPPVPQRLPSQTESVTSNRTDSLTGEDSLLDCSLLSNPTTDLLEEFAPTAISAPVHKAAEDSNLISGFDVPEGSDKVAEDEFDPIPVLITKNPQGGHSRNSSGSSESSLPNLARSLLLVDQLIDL

Compound: Nc1ncnc2c1ncn2[C@@H]1O[C@H](COP(=O)(O)OP(=O)(O)OP(=O)(O)O)[C@@H](O)[C@H]1O [adenosine triphosphate]
Assay: NP40-soluble protein abundance relative to vehicle (solubility fold change) (ratio); higher = more soluble protein in presence of ATP
How it was run: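 Jurkat crude lysate prepared with a Dounce homogeniser was treated at eight concentrations spanning 0.1 to 10 mM, 10 min at room temperature then 3 min at 37 °C. Solubilisation with 0.8% NP40 and benzonase and ultracentrifugation preceded TMT labelling of the supernatant for LC-MS/MS. Fold change against the detergent-processed vehicle was determined per replicate from vsn-normalised intensities, across three independent experiments.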

Target	NP40-soluble protein abundance (concentration: 1mM)	NP40-soluble protein abundance (concentration: 2mM)	NP40-soluble protein abundance (concentration: 4mM)	NP40-soluble protein abundance (concentration: 6mM)	NP40-soluble protein abundance (concentration: 8mM)	NP40-soluble protein abundance (concentration: 10mM)
A0A0A0MR06|O15258 and related entries (UniProt O15258)	0.909 ± 0.081	0.954 ± 0.04	0.918 ± 0.066	0.921 ± 0.056	0.857 ± 0.034	1 ± 0.025
A0A0D9SGJ6|J3KQV8 and related entries (UniProt O43426)	1.04 ± 0.05	1.05 ± 0.035	1.03 ± 0.067	1.02 ± 0.044	1.01 ± 0.052	1.03 ± 0.029
A0A0A6YYL2|P0DMM9 and related entries (UniProt P0DMN0+P0DMM9)	1.01 ± 0.13	1.01 ± 0.057	0.992 ± 0.068	0.98 ± 0.083	0.994 ± 0.081	0.965 ± 0.035
A0A087WTV7|D6R9U7 and related entries (UniProt O15318)	0.908 ± 0.099	0.949 ± 0.043	0.893 ± 0.059	0.895 ± 0.036	0.838 ± 0.11	0.858 ± 0.098
A0A0C4DGZ0|A0A087WWE2 (UniProt P24928)	1.08 ± 0.04	1.05 ± 0.011	1.055 ± 0.0062	1.06 ± 0.048	1.08 ± 0.012	1.05 ± 0.022
A0A087WTJ2|Q8WWP7 (UniProt Q8WWP7)	1.02 ± 0.056	1.02 ± 0.048	1.01 ± 0.042	0.96 ± 0.12	1.01 ± 0.049	0.996 ± 0.044
A0A075B746|P82921 (UniProt P82921)	1.04 ± 0.14	0.975 ± 0.048	1 ± 0.081	0.899 ± 0.11	1.01 ± 0.19	0.882 ± 0.089
A0A087WY85|P61077 and related entries (UniProt P61077)	0.977 ± 0.028	0.942 ± 0.035	0.905 ± 0.026	0.925 ± 0.12	0.952 ± 0.025	0.914 ± 0.054
A0A0A0MSF9|Q8N954 (UniProt Q8N954)	0.952 ± 0.081	0.944 ± 0.078	0.975 ± 0.077	1.05 ± 0.11	1.09 ± 0.049	1.14 ± 0.044
A0A087WVP1|Q14517 (UniProt Q14517)	1.02 ± 0.047	1.04 ± 0.072	1.1 ± 0.17	1.07 ± 0.17	1.07 ± 0.14	1.05 ± 0.098
A0A0A0MSE2|E9PF18 and related entries (UniProt Q16836)	0.967 ± 0.068	0.9477 ± 0.0081	0.919 ± 0.029	0.973 ± 0.039	0.949 ± 0.017	0.908 ± 0.031
A0A0A0MQT4|Q5QP82 and related entries (UniProt Q5QP82)	1.05 ± 0.071	1.03 ± 0.097	1.07 ± 0.14	1.02 ± 0.1	1.04 ± 0.12	1.08 ± 0.14
A0A0A0MRI1|Q8IXQ4 (UniProt Q8IXQ4)	0.964 ± 0.081	0.954 ± 0.05	0.9765 ± 0.008	1.01 ± 0.048	0.941 ± 0.019	0.951 ± 0.03
A0A0C4DGT5|Q5RL73 and related entries (UniProt Q5RL73)	0.958 ± 0.052	0.965 ± 0.11	1.01 ± 0.083	0.997 ± 0.089	0.957 ± 0.13	1.02 ± 0.061
A0A0A0MT83|P26440 (UniProt P26440)	1.05 ± 0.11	1.01 ± 0.069	1.01 ± 0.092	0.96 ± 0.11	1.01 ± 0.079	0.999 ± 0.077
A0A0C4DFU2|P04179 (UniProt P04179)	0.905 ± 0.095	0.936 ± 0.11	0.881 ± 0.092	0.897 ± 0.11	0.902 ± 0.071	0.878 ± 0.1
A0A087WYL5|Q6UXD5-3|Q6UXD5-5|Q6UXD5-6 (UniProt Q6UXD5)	0.907 ± 0.056	0.871 ± 0.12	0.9 ± 0.028	0.884 ± 0.067	0.951 ± 0.018	0.939 ± 0.065
A0A0C4DFX9|Q9H3P2 (UniProt Q9H3P2)	0.999 ± 0.048	0.94 ± 0.028	0.943 ± 0.043	0.964 ± 0.053	0.929 ± 0.041	0.911 ± 0.055
A0A0D9SEZ9|O00303 (UniProt O00303)	0.962 ± 0.072	1.04 ± 0.075	1.06 ± 0.066	1.16 ± 0.12	1.24 ± 0.045	1.33 ± 0.091
A0A075B716|H0YN88 and related entries (UniProt P08708)	0.881 ± 0.056	0.853 ± 0.083	0.811 ± 0.089	0.782 ± 0.11	0.743 ± 0.1	0.78 ± 0.061
A0A0C4DFN8|P22570 and related entries (UniProt P22570)	1.03 ± 0.0078	1.03 ± 0.017	1.03 ± 0.031	1.03 ± 0.06	1.01 ± 0.064	1.02 ± 0.038
A0A087X256|Q2M389 (UniProt Q2M389)	1.04 ± 0.16	1.05 ± 0.12	1.04 ± 0.077	0.961 ± 0.12	1.1 ± 0.066	1.04 ± 0.077
A0A087WTF0|A2A3K4 and related entries (UniProt A2A3K4)	1.05 ± 0.11	1.14 ± 0.18	1.09 ± 0.05	1.21 ± 0.037	1.13 ± 0.14	0.993 ± 0.11
A0A0A0MRU0|A0A0C4DH75|A0A0D9SFF8|B4DZ84 and related entries (UniProt Q14168)	1.02 ± 0.037	1.03 ± 0.041	1.09 ± 0.054	1.01 ± 0.05	1.062 ± 0.0076	1.1 ± 0.13
A0A0C4DFM0|G3V4T6 and related entries (UniProt O43708)	0.886 ± 0.13	0.888 ± 0.076	0.851 ± 0.14	0.848 ± 0.038	0.87 ± 0.11	0.8667 ± 0.0047

3 records picked at random from the list so far, as already listed:
Target	NP40-soluble protein abundance (concentration: 1mM)	NP40-soluble protein abundance (concentration: 2mM)	NP40-soluble protein abundance (concentration: 4mM)	NP40-soluble protein abundance (concentration: 6mM)	NP40-soluble protein abundance (concentration: 8mM)	NP40-soluble protein abundance (concentration: 10mM)
A0A0C4DFN8|P22570 and related entries (UniProt P22570)	1.03 ± 0.0078	1.03 ± 0.017	1.03 ± 0.031	1.03 ± 0.06	1.01 ± 0.064	1.02 ± 0.038
A0A0A0MQT4|Q5QP82 and related entries (UniProt Q5QP82)	1.05 ± 0.071	1.03 ± 0.097	1.07 ± 0.14	1.02 ± 0.1	1.04 ± 0.12	1.08 ± 0.14
A0A0C4DGT5|Q5RL73 and related entries (UniProt Q5RL73)	0.958 ± 0.052	0.965 ± 0.11	1.01 ± 0.083	0.997 ± 0.089	0.957 ± 0.13	1.02 ± 0.061

Additional results.

Target	NP40-soluble protein abundance (concentration: 1mM)	NP40-soluble protein abundance (concentration: 2mM)	NP40-soluble protein abundance (concentration: 4mM)	NP40-soluble protein abundance (concentration: 6mM)	NP40-soluble protein abundance (concentration: 8mM)	NP40-soluble protein abundance (concentration: 10mM)
A0A087WXI1|Q6NVY1 (UniProt Q6NVY1)	1.01 ± 0.037	0.981 ± 0.053	0.967 ± 0.028	0.973 ± 0.091	0.968 ± 0.056	0.949 ± 0.059
A0A0B4J2E8|Q96D31 and related entries (UniProt Q96D31)	0.994 ± 0.092	0.956 ± 0.097	1.07 ± 0.095	0.999 ± 0.066	1.05 ± 0.094	1 ± 0.12
A0A087WTX2|Q92504 (UniProt Q92504)	0.902 ± 0.043	0.902 ± 0.051	0.893 ± 0.07	0.939 ± 0.018	0.909 ± 0.038	0.916 ± 0.019
A0A0A0MT72|Q9BSQ5 and related entries (UniProt Q9BSQ5)	0.989 ± 0.12	1.01 ± 0.059	1.05 ± 0.039	0.992 ± 0.092	1.04 ± 0.082	1.05 ± 0.1
A0A087WSV8|V9HW75 (UniProt V9HW75)	1.06 ± 0.035	0.937 ± 0.045	1.02 ± 0.052	1.09 ± 0.032	1.064 ± 0.0065	0.91 ± 0.22
A0A0A0MRJ6|C9J0F2 and related entries (UniProt P22061)	0.962 ± 0.061	0.982 ± 0.044	0.935 ± 0.025	0.9696 ± 0.005	0.958 ± 0.026	0.918 ± 0.017
A0A0C4DFM1|Q92544 (UniProt Q92544)	1.12 ± 0.11	1.05 ± 0.12	1.03 ± 0.13	0.997 ± 0.14	1.03 ± 0.1	0.988 ± 0.058
A0A087WZN1|O43837 (UniProt O43837)	0.989 ± 0.088	0.97 ± 0.043	0.933 ± 0.04	0.903 ± 0.096	0.953 ± 0.041	0.949 ± 0.039
A0A075B6F9|Q9Y314 (UniProt Q9Y314)	0.954 ± 0.013	0.9543 ± 0.0055	0.955 ± 0.021	0.996 ± 0.012	0.9895 ± 0.0073	0.991 ± 0.019
A0A0A0MTD5|Q8IYU8 (UniProt Q8IYU8)	1.07 ± 0.32	1.16 ± 0.14	1.1 ± 0.12	1.01 ± 0.1	1.07 ± 0.11	1.01 ± 0.17
A0A087WVQ6|Q00610 and related entries (UniProt Q00610)	1.15 ± 0.089	1.14 ± 0.088	1.14 ± 0.071	1.11 ± 0.12	1.19 ± 0.062	1.15 ± 0.066
A0A087WV66|P46013 and related entries (UniProt P46013)	0.999 ± 0.04	0.9935 ± 0.0056	0.986 ± 0.012	1.04 ± 0.021	0.97 ± 0.011	0.989 ± 0.018
A0A087X011|E9PES4 and related entries (UniProt Q9Y496)	1 ± 0.038	1.01 ± 0.035	1.011 ± 0.0088	0.981 ± 0.03	0.99 ± 0.038	0.991 ± 0.026
A0A0C4DG40|Q8NF91 and related entries (UniProt Q8NF91)	0.986 ± 0.051	1 ± 0.024	1.01 ± 0.017	1.04 ± 0.014	0.957 ± 0.024	0.9767 ± 0.0028
A0A0A0MR66	1.11 ± 0.047	1.12 ± 0.05	1.17 ± 0.051	1.26 ± 0.076	1.24 ± 0.037	1.27 ± 0.038
A0A0A0MTG1|Q5ST30 and related entries (UniProt Q5ST30)	1.04 ± 0.02	1.04 ± 0.02	1.04 ± 0.015	1.01 ± 0.03	1.029 ± 0.0018	1.02 ± 0.026
A0A0A0MQU0|Q9BV38 and related entries (UniProt Q9BV38)	0.935 ± 0.11	0.973 ± 0.071	0.964 ± 0.078	0.914 ± 0.062	0.974 ± 0.037	1 ± 0.056
A0A087X0Q1|Q7Z739 (UniProt Q7Z739)	0.971 ± 0.027	0.988 ± 0.038	0.994 ± 0.05	1.01 ± 0.034	0.967 ± 0.043	0.998 ± 0.019
A0A087WSW9|A0A087WSY9|Q16881 and related entries (UniProt Q16881)	0.997 ± 0.044	0.979 ± 0.04	0.946 ± 0.036	0.931 ± 0.11	0.967 ± 0.047	0.95 ± 0.041
A0A096LP25|Q2M2I8 and related entries (UniProt Q2M2I8)	1.01 ± 0.023	1.02 ± 0.013	1.016 ± 0.0055	1.01 ± 0.017	0.997 ± 0.011	1 ± 0.013
A0A087WUU9|P47974 (UniProt P47974)	1.05 ± 0.1	1.02 ± 0.09	1.07 ± 0.08	1.04 ± 0.044	0.968 ± 0.054	0.984 ± 0.063
A0A087X0R0|F5H6S1 and related entries (UniProt O15550)	1.04 ± 0.086	0.998 ± 0.07	1.03 ± 0.074	1.03 ± 0.054	1.05 ± 0.052	1.05 ± 0.013
A0A087X1A8|D3VVH9 and related entries (UniProt P54252)	0.968 ± 0.071	0.991 ± 0.015	0.949 ± 0.033	1 ± 0.036	0.95 ± 0.018	0.951 ± 0.018
A0A096LP10|Q9NP73-2|A0A087WTT9|A0A087WX43|A0A096LNJ4|D6RE84 and related entries (UniProt Q9NP73)	1.16 ± 0.17	1.04 ± 0.02	1.02 ± 0.064	0.975 ± 0.039	0.971 ± 0.071	1.01 ± 0.059
